Among all 400,000 compounds or so, about 3,700 (0.93%) were called active. This list was built around the results that the source calls inconclusive (neither active nor inactive); the mix of calls is not that of the screen. The call rests on the fitted dose curve; in most records, active means well fitted inhibition curve with a large enough effect; inconclusive means small, poorly fitted or top-dose-only effect, or another doubt; inactive means no such curve, though single readings can be large or run the other way. Where the call is inconclusive, the potency comes from a doubtful curve fit. Where a structure was tested more than once in an assay, its records may differ in their call.
molecular target: Vitamin D3 receptor (Homo sapiens) (UniProt P11473); test: Inhibitors of the vitamin D receptor (VDR): qHTS; settings: VDR-SRC2-3 peptide fluorescence polarization, 2 h; max response, negative = inhibition: active compounds read low
In short: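 VDR–SRC2-3 interaction, FP format. Cmpds 23 nl via pintool, brief spin, 2 h ambient incubation.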
On the % scale 0 is the no-effect control and ±100 the full control effect; potency means the concentration at half of the fitted maximal effect.

By UniProt entry, the sequences of proteins in these tests, tags left out.
UniProt P11473, whole entry, looked up: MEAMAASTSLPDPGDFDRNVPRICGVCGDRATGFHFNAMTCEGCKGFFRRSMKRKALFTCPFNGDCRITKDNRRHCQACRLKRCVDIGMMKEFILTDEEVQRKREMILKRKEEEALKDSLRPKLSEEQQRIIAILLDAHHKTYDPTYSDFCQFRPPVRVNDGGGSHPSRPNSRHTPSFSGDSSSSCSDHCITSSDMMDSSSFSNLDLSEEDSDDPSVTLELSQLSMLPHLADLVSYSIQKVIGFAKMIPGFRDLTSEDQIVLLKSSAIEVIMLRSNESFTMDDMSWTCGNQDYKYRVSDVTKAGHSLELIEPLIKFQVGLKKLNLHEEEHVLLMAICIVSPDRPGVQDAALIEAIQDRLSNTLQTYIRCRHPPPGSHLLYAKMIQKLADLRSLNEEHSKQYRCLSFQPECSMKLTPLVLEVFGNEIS

Row | SMILES | Potency | max response, negative = inhibition
1 | COc1ccc(N2CCN(C(=O)c3ccccc3F)CC2)c([N+](=O)[O-])c1 | inconclusive: 31.6 µM [inhibitor, partial curve, poor fit] | –
2 | CN1CCN(c2ncc3ncc(=O)n(CCC#N)c3n2)CC1 | – | inactive: -9.46%
3 | CCOc1cc(CNCCc2ccc(S(N)(=O)=O)cc2)ccc1OCc1ccccc1 | – | inactive: -3.73%
4 | Fc1ccc(OCCCCCCN2CCCC2)cc1 | – | inactive: 2.85%
5 | O=C(NCCN1CCOCC1)c1cc(-c2ccc(F)cc2)nc2ccccc12 | inconclusive: 89.1 µM [inhibitor, single point] | –
6 | O=S1(=O)NC2c3ccccc3CC2O1 (stereo not given) | inconclusive: 44.7 µM [inhibitor, partial curve] | –
7 | N#CC(C#N)=C1C=C2C=C(N3CCCCC3)CCC2CC1 (stereo not given) | inconclusive: 89.1 µM [inhibitor, single point] | –
8 | CC(C)(C)NC(=O)COC(=O)c1ccc(Cl)cc1O | – | inactive: 22.7%
9 | CCSc1n[nH]c2nc3c(c(=O)n12)C1(CCCCC1)Cc1ccccc1-3 | inconclusive: 89.1 µM [inhibitor, partial curve, poor fit] | –
10 | N#C/C(=C\C=C\c1ccccc1)C(=O)NCc1cccnc1 | inconclusive: 89.1 µM [inhibitor, partial curve] | –
11 | O=C(NCCc1ccccc1F)c1ccc2c(c1)OCCO2 | inconclusive: 89.1 µM [inhibitor, single point] | –
12 | CC(=O)Oc1ccc(C23c4ccccc4C2(OC(C)=O)c2cc(OC(C)=O)ccc23)cc1 (stereo not given) | – | inactive: -6.64%
13 | N#CCCCS(=O)(=O)c1nnnn1-c1ccc(Br)cc1 | inconclusive: 44.7 µM [inhibitor, partial curve, poor fit] | –
14 | O=C(Nc1cccnc1)c1cc(-c2cccc(Cl)c2)on1 | active: 79.4 µM | –
15 | CC(C)(C)NC(=O)C(c1ccncc1)N(Cc1ccc(F)cc1)C(=O)c1ccc(-c2ccccc2)[nH]1 (stereo not given) | inconclusive: 89.1 µM [inhibitor, partial curve, poor fit] | –
16 | CCCOc1nc2c(c(=O)n(C)c(=O)n2C)n1C | inconclusive: 79.4 µM [inhibitor, single point] | –
17 | Clc1ss/c(=N\c2ccccn2)c1Cl | – | inactive: -2.75%
18 | CC(C)C1CCC(C(=O)NC(Cc2ccccc2)C(=O)O)CC1 (stereo not given) | inconclusive: 31.6 µM [inhibitor, partial curve, poor fit] | –
19 | CC1=C(C(N)=O)C(c2cccs2)NC(=S)N1 (stereo not given) | inconclusive: 89.1 µM [inhibitor, single point] | –
20 | CN(C)/C=C/C(=O)c1ccc(-c2ccc(Cl)cc2Cl)o1 | inconclusive: 89.1 µM [inhibitor, single point] | –
21 | CCOC(=O)c1c(NC(=O)CSc2nnc(-c3cccnc3)o2)sc(C(C)=O)c1C | inconclusive: 22.4 µM [inhibitor, single point] | –
22 | CC(Sc1nc(N)c2c3c(sc2n1)CSC(C)(C)C3)C(=O)Nc1ccccc1 (stereo not given) | active: 39.8 µM | –

Three structures from above, sorted by length of the SMILES, falling.
Row | SMILES | Potency | max response, negative = inhibition
15 | CC(C)(C)NC(=O)C(c1ccncc1)N(Cc1ccc(F)cc1)C(=O)c1ccc(-c2ccccc2)[nH]1 (stereo not given) | inconclusive: 89.1 µM [inhibitor, partial curve, poor fit] | –
18 | CC(C)C1CCC(C(=O)NC(Cc2ccccc2)C(=O)O)CC1 (stereo not given) | inconclusive: 31.6 µM [inhibitor, partial curve, poor fit] | –
11 | O=C(NCCc1ccccc1F)c1ccc2c(c1)OCCO2 | inconclusive: 89.1 µM [inhibitor, single point] | –

Two entries picked at random from those above:
Row | SMILES | Potency | max response, negative = inhibition
9 | CCSc1n[nH]c2nc3c(c(=O)n12)C1(CCCCC1)Cc1ccccc1-3 | inconclusive: 89.1 µM [inhibitor, partial curve, poor fit] | –
21 | CCOC(=O)c1c(NC(=O)CSc2nnc(-c3cccnc3)o2)sc(C(C)=O)c1C | inconclusive: 22.4 µM [inhibitor, single point] | –

Next results:

Row | SMILES | Potency | max response, negative = inhibition
23 | CC(=O)Nc1ccc(S(=O)(=O)NC2=NCN(c3ccc([N+](=O)[O-])cc3)CN2)cc1 | inconclusive: 25.1 µM [inhibitor, full curve] | –
24 | O=C1C=CC(=O)N1Cc1ccccc1 | active: 15.8 µM | –
25 | CC1CCN(c2nc(-c3ccco3)c3c(c2C#N)CC(C)(C)OC3)CC1 | active: 50.1 µM | –
26 | CCCc1c(C(=O)NNc2cccc(Cl)c2)cnn1-c1ccccc1 | inconclusive: 89.1 µM [inhibitor, partial curve, poor fit] | –
27 | Cc1ccccc1CN(c1ccc(C(=O)NCC2CCCO2)cc1)S(C)(=O)=O (stereo not given) | inconclusive: 89.1 µM [inhibitor, partial curve, poor fit] | –
28 | S=C(Cc1ccc(Cl)cc1)N1CCOCC1 | inconclusive: 89.1 µM [inhibitor, single point] | –
29 | Cc1ccc(NC(=O)CN(C)S(=O)(=O)c2ccc3[nH]c4c(c3c2)CCCC4)c(Cl)c1 | – | inactive: 13.4%
30 | COc1ccc(C2=Nc3cccc4cccc(c34)N2)cc1 | – | inactive: -11.8%
31 | COc1cc2c(cc1OC)C1=C(C#N)CCC(=O)N1CC2 | – | inactive: -1.47%
32 | C/C=C\C=C/C(=O)Nc1cccc(C2=NOC3(C2)C[C@H](C(N)=O)N(C(=O)Cc2ccc([N+](=O)[O-])cc2)C3)c1 (stereo not given in full) | inconclusive: 63.1 µM [inhibitor, partial curve, poor fit] | –
33 | CCC1(c2ccccc2)NC(=O)N(CC(=O)N(CC(=O)Nc2ccccc2C(F)(F)F)Cc2ccco2)C1=O (stereo not given) | inconclusive: 100 µM [inhibitor, single point] | –
34 | COc1cc(C(=O)Nc2ccc(C(C)=O)cc2)c(Br)c(OC)c1OC | inconclusive: 100 µM [inhibitor, partial curve, poor fit] | –
35 | Cc1ccc(C(=O)NNc2ncnc3c2cnn3C)cc1 | – | inactive: -2.96%
36 | CCOc1ccc(CCNC(=O)/C=C/c2ccco2)cc1OCC | – | inactive: -4.83%
37 | S=C(NCc1ccco1)NCC(c1ccco1)N1CCCCC1 (stereo not given) | inconclusive: 79.4 µM [inhibitor, single point] | –
38 | CC1=C(CC(=O)NCC(=O)NCC(=O)O)c2cc(F)ccc2/C1=C/c1ccc(S(C)=O)cc1 (stereo not given) | – | inactive: -2.94%
39 | C/C=C(/C)C(=O)OC1C(OC(C)=O)[C@@]2(CO)C(O)C[C@@]3(C)C(=CCC4[C@@]5(C)CCC(OC6OC(C(=O)O)[C@@H](O[C@@H]7OC(CO)C(O)C(O)C7O)C(O)[C@H]6O[C@@H]6OC(CO)C(O)C(O)C6O)[C@](C)(CO)C5CC[C@@]43C)C2CC1(C)C (stereo not given in full) | inconclusive: 50.1 µM [inhibitor, partial curve] | –
40 | CN(C)Cc1cc(C(C)(C)C)c(O)c(C(C)(C)C)c1 | – | inactive: -1.31%
41 | O=C(Oc1ccc(C(=S)N2CCOCC2)cc1)c1ccccc1F | inconclusive: 79.4 µM [inhibitor, partial curve, poor fit] | –
42 | CC(=O)OC1CC2C(C)(C)C(=O)C=C[C@]2(C)C2CC[C@@]3(C)C(c4ccoc4)OC(=O)C4O[C@@]43[C@]12C (stereo not given in full) | inconclusive: 25.1 µM [inhibitor, full curve] | –
43 | S=C(NCc1cccc(Cl)c1)NCc1ccco1 | inconclusive: 89.1 µM [inhibitor, partial curve, poor fit] | –
44 | Cc1csc(N2CCN(c3cc4c(cc3Cl)nc(-c3ccncc3)n4CCCN3CCCC3)CC2)n1 | – | inactive: 6.61%

Row | SMILES | Potency | max response, negative = inhibition
45 | CCC[C@H](CN[C@@H](CNC)[C@H](C)O)NCCc1ccc(OC)cc1 | – | inactive: 1.08%
46 | Cc1ccc(CN(C)C(=O)CN2C(=O)NC3(CCCC3)C2=O)o1 | inconclusive: 100 µM [inhibitor, partial curve, poor fit] | –
47 | Oc1ccc(N=Nc2cccc(C(F)(F)F)c2)cc1C=Nc1ccc(N2CCOCC2)cc1 | inconclusive: 79.4 µM [inhibitor, partial curve] | –
48 | O=C(C#Cc1ccccc1)c1ccc([N+](=O)[O-])cc1 | active: 14.1 µM | –
49 | Cc1ccc(S(=O)(=O)N2CCOCC2)cc1C(=O)Nc1nc(-c2ccccn2)cs1 | inconclusive: 100 µM [inhibitor, single point] | –
50 | O=C(O)C1Nc2ccc(Br)cc2C2C=CCC12 (stereo not given) | inconclusive: 89.1 µM [inhibitor, single point] | –
51 | Cc1ccc(C2=NC3(CCCC3)N=C2SCC(=O)Nc2ccc3c(c2)OCCO3)cc1 | inconclusive: 89.1 µM [inhibitor, single point] | –
52 | COc1ccc(Nc2c3c(nc4ccccc24)CCC3)cc1 | inconclusive: 89.1 µM [inhibitor, single point] | –
53 | NNC(=O)c1[nH]c2ccc(Br)cc2c1-c1ccccc1 | inconclusive: 56.2 µM [inhibitor, partial curve, poor fit] | –
54 | O=C(Nc1ccc(S(=O)(=O)NC2=NCCCCC2)cc1)c1ccc(=O)[nH]c1 | inconclusive: 89.1 µM [inhibitor, single point] | –
55 | CCN(CC)CCn1c(NCc2cc(OC)ccc2OC)nc2ccccc21 | inconclusive: 89.1 µM [inhibitor, partial curve, poor fit] | –
56 | COc1cc(C(=O)O)c2c(c1C)OC(=O)c1c(C)cc(O)c(C=O)c1O2 | inconclusive: 79.4 µM [inhibitor, single point] | –
57 | CC(=O)NNc1nc(-c2ccccc2)cs1 | inconclusive: 28.2 µM [inhibitor, full curve, poor fit] | –
58 | CCCCCCSc1nc(O)c(C2OC(=O)c3c2ccc(OC)c3OC)c(=O)n1CC (stereo not given) | inconclusive: 50.1 µM [inhibitor, partial curve] | –
59 | CC(C)N(C(=O)[C@H]1CC(CC(=O)NCCCN(C)C)C(=O)N2CCc3c([nH]c4ccccc34)[C@]12C)C(C)C (stereo not given in full) | – | inactive: -19.6%
60 | CCCCn1c(=O)c2oc3ccccc3c2n(CC(=O)Nc2ccccc2OC)c1=O | – | inactive: 4.96%
61 | O=C(O)C1=C[C@@H](C2CCCCC2)C[C@@H](OCc2ccc(CO)cc2)O1 | inconclusive: 70.8 µM [inhibitor, partial curve, poor fit] | –
62 | COC(=O)C1=C(C)N(CCC2=CCCCC2)C(=O)C1 | inconclusive: 50.1 µM [inhibitor, partial curve] | –
63 | CCOC(=O)c1[nH]c(C)c(C(=O)N2CCN(c3ccccc3OC)CC2)c1C | inconclusive: 89.1 µM [inhibitor, single point] | –
64 | O=C1NC(=O)/C(=C/c2ccc(-c3ccc(F)cc3O)o2)S1 | active: 12.6 µM | –
65 | S=c1nc(C2CC2)[nH]c2ccccc12 | inconclusive: 50.1 µM [inhibitor, partial curve, poor fit] | –
